{"source": "the supplement of paper PMC10077471", "note": "In all, about 1,900 compounds were measured (“excess over highest single agent (ExcessHSA) synergy score, 6x6 matrix”: median about -83, lowest 2% from about -370 on). This is one part of the list.", "data": [{"test_system": "NCI-H446", "assay": "excess over highest single agent (ExcessHSA) synergy score, 6x6 matrix; higher = less synergy (more negative = stronger synergy)", "details": "72 h; CellTiter-Glo viability", "values": [{"smiles": "CC(C)CC(=O)Nc1n[nH]c2c1CN(C(=O)C1CCN(C)CC1)C2(C)C", "note": "+ Cc1sc2c(c1C)C(c1ccc(Cl)cc1)=N[C@@H](CC(=O)OC(C)(C)C)c1nnc(C)n1-2 [NCGC00250412-19]", "excess over highest single agent": -619}, {"smiles": "CC(C)C[C@H](NC(=O)CNC(=O)c1cc(Cl)ccc1Cl)B(O)O", "note": "+ Cc1sc2c(c1C)C(c1ccc(Cl)cc1)=N[C@@H](CC(=O)OC(C)(C)C)c1nnc(C)n1-2 [NCGC00250412-19]", "excess over highest single agent": -170}, {"smiles": "CC[C@H]1CN2CCc3cc(OC)c(OC)cc3[C@@H]2C[C@@H]1C[C@H]1NCCc2cc(OC)c(OC)cc21", "note": "+ Cc1sc2c(c1C)C(c1ccc(Cl)cc1)=N[C@@H](CC(=O)OC(C)(C)C)c1nnc(C)n1-2 [NCGC00250412-19]", "excess over highest single agent": -163}, {"smiles": "C[C@](Cc1c[nH]c2ccccc12)(NC(=O)OC1[C@H]2C[C@@H]3C[C@@H](C[C@H]1C3)C2)C(=O)NC[C@H](NC(=O)CCC(=O)O)c1ccccc1", "note": "(some centres not stated) + Cc1sc2c(c1C)C(c1ccc(Cl)cc1)=N[C@@H](CC(=O)OC(C)(C)C)c1nnc(C)n1-2 [NCGC00250412-19]", "excess over highest single agent": 28.3}, {"smiles": "CCn1cc(-c2ccnc3[nH]c(-c4cccc(CN(C)C)c4)cc23)c(-c2ccc(NC(=O)N(C)C)cc2)n1", "note": "+ Cc1sc2c(c1C)C(c1ccc(Cl)cc1)=N[C@@H](CC(=O)OC(C)(C)C)c1nnc(C)n1-2 [NCGC00250412-19]", "excess over highest single agent": -370}, {"smiles": "CCOc1ccn(-c2ccc(F)cc2)c(=O)c1C(=O)Nc1ccc(Oc2ccnc(N)c2Cl)c(F)c1", "note": "+ Cc1sc2c(c1C)C(c1ccc(Cl)cc1)=N[C@@H](CC(=O)OC(C)(C)C)c1nnc(C)n1-2 [NCGC00250412-19]", "excess over highest single agent": -79.2}, {"smiles": "Cc1nc(Nc2n[nH]c3c2CN(C(=O)N[C@H](CN(C)C)c2ccccc2)C3(C)C)c2sccc2n1", "note": "+ Cc1sc2c(c1C)C(c1ccc(Cl)cc1)=N[C@@H](CC(=O)OC(C)(C)C)c1nnc(C)n1-2 [NCGC00250412-19]", "excess over highest single agent": -503}, {"smiles": "CNC[C@H](O)c1cccc(O)c1", "note": "+ Cc1sc2c(c1C)C(c1ccc(Cl)cc1)=N[C@@H](CC(=O)OC(C)(C)C)c1nnc(C)n1-2 [NCGC00250412-19]", "excess over highest single agent": 65.2}, {"smiles": "O=S(=O)(NCCNCC=Cc1ccc(Br)cc1)c1cccc2cnccc12", "note": "+ Cc1sc2c(c1C)C(c1ccc(Cl)cc1)=N[C@@H](CC(=O)OC(C)(C)C)c1nnc(C)n1-2 [NCGC00250412-19]", "excess over highest single agent": 29.6}, {"smiles": "N[C@@H]1CN(c2c(F)cc3c(=O)c(C(=O)O)cn([C@@H]4C[C@@H]4F)c3c2Cl)CC12CC2", "note": "+ Cc1sc2c(c1C)C(c1ccc(Cl)cc1)=N[C@@H](CC(=O)OC(C)(C)C)c1nnc(C)n1-2 [NCGC00250412-19]", "excess over highest single agent": -141}, {"smiles": "C[C@H](NC(=O)Cc1cc(F)cc(F)c1)C(=O)N[C@@H]1C(=O)N(C)c2ccccc2-c2ccccc21", "note": "+ Cc1sc2c(c1C)C(c1ccc(Cl)cc1)=N[C@@H](CC(=O)OC(C)(C)C)c1nnc(C)n1-2 [NCGC00250412-19]", "excess over highest single agent": -28.3}, {"smiles": "O=C(O)c1ccc(Nc2ncc3c(n2)-c2ccc(Cl)cc2C(c2c(F)cccc2F)=NC3)cc1", "note": "+ Cc1sc2c(c1C)C(c1ccc(Cl)cc1)=N[C@@H](CC(=O)OC(C)(C)C)c1nnc(C)n1-2 [NCGC00250412-19]", "excess over highest single agent": -157}, {"smiles": "OCc1ccc(-c2ccc(-c3ccc(CO)s3)o2)s1", "note": "+ Cc1sc2c(c1C)C(c1ccc(Cl)cc1)=N[C@@H](CC(=O)OC(C)(C)C)c1nnc(C)n1-2 [NCGC00250412-19]", "excess over highest single agent": 33.9}, {"smiles": "O=c1c(-c2ccc(O)cc2)coc2cc(O)cc(O)c12", "note": "+ Cc1sc2c(c1C)C(c1ccc(Cl)cc1)=N[C@@H](CC(=O)OC(C)(C)C)c1nnc(C)n1-2 [NCGC00250412-19]", "excess over highest single agent": -46.5}, {"smiles": "CSc1cccc(Nc2ncc3cc(-c4c(Cl)cccc4Cl)c(=O)n(C)c3n2)c1", "note": "+ Cc1sc2c(c1C)C(c1ccc(Cl)cc1)=N[C@@H](CC(=O)OC(C)(C)C)c1nnc(C)n1-2 [NCGC00250412-19]", "excess over highest single agent": -159}, {"smiles": "O=c1ccn(C2OC(CO)C(O)C2F)c(=O)[nH]1", "note": "(configuration not stated) + Cc1sc2c(c1C)C(c1ccc(Cl)cc1)=N[C@@H](CC(=O)OC(C)(C)C)c1nnc(C)n1-2 [NCGC00250412-19]", "excess over highest single agent": 46.9}, {"smiles": "CC1=C(C(=O)Nc2cc3cn[nH]c3cc2F)C(c2ccc(Cl)cc2F)N=C(c2ccnc(Cl)c2)N1", "note": "(configuration not stated) + Cc1sc2c(c1C)C(c1ccc(Cl)cc1)=N[C@@H](CC(=O)OC(C)(C)C)c1nnc(C)n1-2 [NCGC00250412-19]", "excess over highest single agent": -142}, {"smiles": "Cc1nc2cnc3ccc(C#Cc4cccnc4)cc3c2n1-c1ccc(C(C)(C)C#N)cc1", "note": "+ Cc1sc2c(c1C)C(c1ccc(Cl)cc1)=N[C@@H](CC(=O)OC(C)(C)C)c1nnc(C)n1-2 [NCGC00250412-19]", "excess over highest single agent": -222}, {"smiles": "NC(CO)(CO)CCc1ccc(Sc2cccc(OCc3ccccc3)c2)cc1Cl", "note": "+ Cc1sc2c(c1C)C(c1ccc(Cl)cc1)=N[C@@H](CC(=O)OC(C)(C)C)c1nnc(C)n1-2 [NCGC00250412-19]", "excess over highest single agent": -103}, {"smiles": "COc1cc([C@@H]2c3cc4c(cc3[C@H](O)[C@H]3COC(=O)[C@H]23)OCO4)cc(OC)c1OC", "note": "+ Cc1sc2c(c1C)C(c1ccc(Cl)cc1)=N[C@@H](CC(=O)OC(C)(C)C)c1nnc(C)n1-2 [NCGC00250412-19]", "excess over highest single agent": -129}, {"smiles": "C=CCc1ccc(O)c(-c2ccc(O)c(CC=C)c2)c1", "note": "+ Cc1sc2c(c1C)C(c1ccc(Cl)cc1)=N[C@@H](CC(=O)OC(C)(C)C)c1nnc(C)n1-2 [NCGC00250412-19]", "excess over highest single agent": 29.3}, {"smiles": "CC(C)C[C@H](NC(=O)[C@@H](O)[C@H](N)Cc1ccccc1)C(=O)O", "note": "+ Cc1sc2c(c1C)C(c1ccc(Cl)cc1)=N[C@@H](CC(=O)OC(C)(C)C)c1nnc(C)n1-2 [NCGC00250412-19]", "excess over highest single agent": -74.5}, {"smiles": "CS(=O)(=O)N(Cc1ccco1)C[C@@H](O)Cn1c2ccccc2c2ccccc21", "note": "+ Cc1sc2c(c1C)C(c1ccc(Cl)cc1)=N[C@@H](CC(=O)OC(C)(C)C)c1nnc(C)n1-2 [NCGC00250412-19]", "excess over highest single agent": -206}, {"smiles": "COC(=O)[C@H]1[C@H]2C[C@@H]3c4[nH]c5cc(OC)ccc5c4CCN3C[C@H]2C[C@@H](OC(=O)c2cc(OC)c(OC)c(OC)c2)[C@@H]1OC", "note": "+ Cc1sc2c(c1C)C(c1ccc(Cl)cc1)=N[C@@H](CC(=O)OC(C)(C)C)c1nnc(C)n1-2 [NCGC00250412-19]", "excess over highest single agent": -138}, {"smiles": "COc1ccc2cccc(CCNC(C)=O)c2c1", "note": "+ Cc1sc2c(c1C)C(c1ccc(Cl)cc1)=N[C@@H](CC(=O)OC(C)(C)C)c1nnc(C)n1-2 [NCGC00250412-19]", "excess over highest single agent": -34.9}, {"smiles": "CN(C)C(=O)c1ccc(S(=O)(=O)c2ccc(NC(=O)[C@@](C)(O)C(F)(F)F)c(Cl)c2)cc1", "note": "+ Cc1sc2c(c1C)C(c1ccc(Cl)cc1)=N[C@@H](CC(=O)OC(C)(C)C)c1nnc(C)n1-2 [NCGC00250412-19]", "excess over highest single agent": -99.3}, {"smiles": "CC(C)NCC(O)c1ccc(NS(C)(=O)=O)cc1", "note": "(configuration not stated) + Cc1sc2c(c1C)C(c1ccc(Cl)cc1)=N[C@@H](CC(=O)OC(C)(C)C)c1nnc(C)n1-2 [NCGC00250412-19]", "excess over highest single agent": -14.7}, {"smiles": "C#C[C@]1(O)CC[C@H]2[C@@H]3CCc4cc(OC)ccc4[C@H]3CC[C@@]21C", "note": "+ Cc1sc2c(c1C)C(c1ccc(Cl)cc1)=N[C@@H](CC(=O)OC(C)(C)C)c1nnc(C)n1-2 [NCGC00250412-19]", "excess over highest single agent": -126}, {"smiles": "CC(=O)N1CCN(c2ccc(OCC3COC(Cn4ccnc4)(c4ccc(Cl)cc4Cl)O3)cc2)CC1", "note": "(configuration not stated) + Cc1sc2c(c1C)C(c1ccc(Cl)cc1)=N[C@@H](CC(=O)OC(C)(C)C)c1nnc(C)n1-2 [NCGC00250412-19]", "excess over highest single agent": -31.4}, {"smiles": "CN(CCOc1ccc(NS(C)(=O)=O)cc1)CCc1ccc(NS(C)(=O)=O)cc1", "note": "+ Cc1sc2c(c1C)C(c1ccc(Cl)cc1)=N[C@@H](CC(=O)OC(C)(C)C)c1nnc(C)n1-2 [NCGC00250412-19]", "excess over highest single agent": -135}, {"smiles": "CN(C)CC(=O)N1CCC(c2ccc(NC(=O)c3ncc(C#N)[nH]3)c(C3=CCCCC3)c2)CC1", "note": "+ Cc1sc2c(c1C)C(c1ccc(Cl)cc1)=N[C@@H](CC(=O)OC(C)(C)C)c1nnc(C)n1-2 [NCGC00250412-19]", "excess over highest single agent": 53.2}, {"smiles": "Cc1[nH]c(/C=C2\\C(=O)Nc3ccccc32)c(C)c1CCC(=O)O", "note": "+ Cc1sc2c(c1C)C(c1ccc(Cl)cc1)=N[C@@H](CC(=O)OC(C)(C)C)c1nnc(C)n1-2 [NCGC00250412-19]", "excess over highest single agent": -45.6}, {"smiles": "CO[C@H]1C[C@@H]2CC[C@@H](C)[C@@](O)(O2)C(=O)C(=O)N2CCCC[C@H]2C(=O)O[C@H]([C@H](C)C[C@@H]2CC[C@@H](O)[C@H](OC)C2)CC(=O)[C@H](C)/C=C(\\C)[C@@H](O)[C@@H](OC)C(=O)[C@H](C)C[C@H](C)/C=C/C=C/C=C/1C", "note": "+ Cc1sc2c(c1C)C(c1ccc(Cl)cc1)=N[C@@H](CC(=O)OC(C)(C)C)c1nnc(C)n1-2 [NCGC00250412-19]", "excess over highest single agent": -737}, {"smiles": "CCN(CC)CCn1c(=O)c(Cc2ccc(OC)cc2)nc2ccccc21", "note": "+ Cc1sc2c(c1C)C(c1ccc(Cl)cc1)=N[C@@H](CC(=O)OC(C)(C)C)c1nnc(C)n1-2 [NCGC00250412-19]", "excess over highest single agent": -47.3}, {"smiles": "C[C@@H]1CC[C@H]2[C@@H](C)C(=O)O[C@@H]3O[C@@]4(C)CC[C@@H]1[C@]32OO4", "note": "+ Cc1sc2c(c1C)C(c1ccc(Cl)cc1)=N[C@@H](CC(=O)OC(C)(C)C)c1nnc(C)n1-2 [NCGC00250412-19]", "excess over highest single agent": -183}, {"smiles": "Oc1cc(-c2nc(-c3ccccc3)[nH]c2-c2ccncc2)ccc1Cl", "note": "+ Cc1sc2c(c1C)C(c1ccc(Cl)cc1)=N[C@@H](CC(=O)OC(C)(C)C)c1nnc(C)n1-2 [NCGC00250412-19]", "excess over highest single agent": -50}, {"smiles": "CC(C)[C@H](C(=O)Nc1ccc(C(=O)NO)cc1)c1ccccc1", "note": "+ Cc1sc2c(c1C)C(c1ccc(Cl)cc1)=N[C@@H](CC(=O)OC(C)(C)C)c1nnc(C)n1-2 [NCGC00250412-19]", "excess over highest single agent": -112}]}]}
